# No constants are given. Whether binding was seen depends on the method and setting. Binding seen in cells or lysates may run through a third protein. Some results given as binding are weak or reduced against the parent protein; the word gives no strength. For some assays here: Tags and fused reporters may be left off the sequences shown.
# Protein sequences, listed by entry. Tags and fused reporters are not part of them. Residues count along the entry.
# UniProt P16070, residues 21-742: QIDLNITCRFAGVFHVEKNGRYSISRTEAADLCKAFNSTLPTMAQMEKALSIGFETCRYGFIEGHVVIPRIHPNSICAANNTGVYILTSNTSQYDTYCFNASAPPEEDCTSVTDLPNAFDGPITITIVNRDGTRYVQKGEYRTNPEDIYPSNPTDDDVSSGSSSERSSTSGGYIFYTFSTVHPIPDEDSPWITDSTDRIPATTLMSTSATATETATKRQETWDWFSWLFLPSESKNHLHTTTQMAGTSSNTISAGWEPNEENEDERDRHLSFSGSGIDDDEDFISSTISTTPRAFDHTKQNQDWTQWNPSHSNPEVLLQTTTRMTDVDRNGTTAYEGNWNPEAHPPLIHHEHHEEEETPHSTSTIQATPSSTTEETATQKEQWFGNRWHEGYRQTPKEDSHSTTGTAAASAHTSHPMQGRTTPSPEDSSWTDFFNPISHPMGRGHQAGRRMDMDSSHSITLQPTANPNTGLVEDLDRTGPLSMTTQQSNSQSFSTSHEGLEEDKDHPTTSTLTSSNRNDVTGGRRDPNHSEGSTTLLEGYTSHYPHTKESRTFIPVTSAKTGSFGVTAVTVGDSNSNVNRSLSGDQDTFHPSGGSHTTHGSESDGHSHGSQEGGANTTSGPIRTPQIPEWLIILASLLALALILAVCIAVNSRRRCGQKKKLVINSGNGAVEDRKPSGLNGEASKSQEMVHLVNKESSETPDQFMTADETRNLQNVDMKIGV
# T1: MDK-SFB (FLAG-fusion MDK) (human) (UniProt P21741)
# T1 sequence: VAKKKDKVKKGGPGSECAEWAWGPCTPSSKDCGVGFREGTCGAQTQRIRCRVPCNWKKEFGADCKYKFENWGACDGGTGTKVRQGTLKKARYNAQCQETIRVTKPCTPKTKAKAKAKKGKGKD
# T2: serglycin (SRGN), endogenous in ESCC cells (human (endogenous in KYSE150 and KYSE410)) (UniProt P10124)
# T2 sequence: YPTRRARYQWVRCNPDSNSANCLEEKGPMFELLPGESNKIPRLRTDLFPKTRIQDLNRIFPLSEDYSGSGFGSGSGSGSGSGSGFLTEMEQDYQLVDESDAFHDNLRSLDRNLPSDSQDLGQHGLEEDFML
# B1: midkine (MDK), endogenous in ESCC cells (protein, UniProt P21741 21-143)
# chain: T1 sequence
# Tests used:
# [1] = molecular target: T1, MDK-SFB (FLAG-fusion MDK) (human); test: co-IP; whole cell lysates of ESCC cells transfected with MDK-SFB, MMP2-SFB or MMP9-SFB; IP lysis buffer (50 mM Tris, 150 mM NaCl, 0.5% NP-40, 5 mM EDTA); anti-FLAG M2 beads overnight; blots for endogenous SRGN and CD44
# [2] = molecular target: T2, serglycin (SRGN), endogenous in ESCC cells (human (endogenous in KYSE150 and KYSE410)); test: proximity ligation; Duolink in situ PLA on KYSE150 and KYSE410 cells; a pair of primary antibodies from different species (mouse anti-SRGN with goat anti-MDK, rabbit anti-MMP2 or rabbit anti-MMP9); probes < 40 nm apart give a spot; negative control with IgG in place of one primary antibody
Molecule,binding [1],binding [2]
"CD44, endogenous in ESCC cells (from UniProt P16070 21-742) (receptor)",binds,
B1,,binds
